Results taken from article PMC10680284.
These are yes or no findings as the source states them, for the method shown. Binding seen in cells or lysates may run through a third protein. Some results given as binding are weak or reduced against the parent protein; the word gives no strength.

Protein sequences, listed by entry. Tags and fused reporters are not part of them.
UniProt P40763: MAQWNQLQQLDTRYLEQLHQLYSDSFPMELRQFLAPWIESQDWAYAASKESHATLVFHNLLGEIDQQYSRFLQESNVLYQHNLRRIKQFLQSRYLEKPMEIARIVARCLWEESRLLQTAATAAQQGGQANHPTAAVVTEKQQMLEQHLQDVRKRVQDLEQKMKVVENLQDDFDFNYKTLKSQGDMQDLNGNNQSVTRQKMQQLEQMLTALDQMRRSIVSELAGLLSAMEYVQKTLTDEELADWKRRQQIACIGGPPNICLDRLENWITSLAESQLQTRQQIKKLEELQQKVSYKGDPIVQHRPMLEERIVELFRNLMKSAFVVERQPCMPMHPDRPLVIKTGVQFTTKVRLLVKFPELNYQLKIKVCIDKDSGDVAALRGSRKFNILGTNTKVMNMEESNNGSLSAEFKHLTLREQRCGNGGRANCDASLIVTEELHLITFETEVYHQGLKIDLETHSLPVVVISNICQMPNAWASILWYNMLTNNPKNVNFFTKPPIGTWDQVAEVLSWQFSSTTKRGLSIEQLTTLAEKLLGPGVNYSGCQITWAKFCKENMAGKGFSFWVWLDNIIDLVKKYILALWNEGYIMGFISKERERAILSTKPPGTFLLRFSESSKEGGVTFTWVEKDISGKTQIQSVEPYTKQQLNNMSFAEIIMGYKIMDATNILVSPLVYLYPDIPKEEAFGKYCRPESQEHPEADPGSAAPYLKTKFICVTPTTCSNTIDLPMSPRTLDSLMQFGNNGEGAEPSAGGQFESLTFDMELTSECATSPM

Target: STAT3 (human (endogenous in Lovo and HCT-116)) (UniProt P40763)
Assay: co-IP; endogenous proteins in Lovo and HCT-116 cell lysates; IP with antibody against STAT3 or NLK, normal rabbit IgG as control; protein A and protein G; western blot

B1: NLK (protein, UniProt Q9UBE8 1-527)
chain: MSLCGARANAKMMAAYNGGTSAAAAGHHHHHHHHLPHLPPPHLHHHHHPQHHLHPGSAAAVHPVQQHTSSAAAAAAAAAAAAAMLNPGQQQPYFPSPAPGQAPGPAAAAPAQVQAAAAATVKAHHHQHSHHPQQQLDIEPDRPIGYGAFGVVWSVTDPRDGKRVALKKMPNVFQNLVSCKRVFRELKMLCFFKHDNVLSALDILQPPHIDYFEEIYVVTELMQSDLHKIIVSPQPLSSDHVKVFLYQILRGLKYLHSAGILHRDIKPGNLLVNSNCVLKICDFGLARVEELDESRHMTQEVVTQYYRAPEILMGSRHYSNAIDIWSVGCIFAELLGRRILFQAQSPIQQLDLITDLLGTPSLEAMRTACEGAKAHILRGPHKQPSLPVLYTLSSQATHEAVHLLCRMLVFDPSKRISAKDALAHPYLDEGRLRYHTCMCKCCFSTSTGRVYTSDFEPVTNPKFDDTFEKNLSSVRQVKEIIHQFILEQQKGNRVPLCINPQSAAFKSFISSTVAQPSEMPPSPLVWE
B1 was tested, and the binding was “binds”.
